According to the supplement of paper PMC12823440, “Inhibitors supercharge kinase turnover through native proteolytic circuits” (Nature, 2025):
This is one part of the list. The calls rarely recur for the same compound in another form.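 In K562 cells expressing nanoluciferase-fused kinases, luminescence was recorded at 4 h intervals between 2 and 18 h, normalized as percent of control with DMSO at 100% and a positive control at 0%. A significant (2 sigma) signal drop marks a time point as decreased. The authors' rule for a hit is not shown and takes in more than the number of time points.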

The chains behind the UniProt entries cited, without tags or fusion partners. Where a name states a change or a piece, a line headed by the entry shows the natural chain unless it says otherwise.
UniProt P07949, whole entry, looked up: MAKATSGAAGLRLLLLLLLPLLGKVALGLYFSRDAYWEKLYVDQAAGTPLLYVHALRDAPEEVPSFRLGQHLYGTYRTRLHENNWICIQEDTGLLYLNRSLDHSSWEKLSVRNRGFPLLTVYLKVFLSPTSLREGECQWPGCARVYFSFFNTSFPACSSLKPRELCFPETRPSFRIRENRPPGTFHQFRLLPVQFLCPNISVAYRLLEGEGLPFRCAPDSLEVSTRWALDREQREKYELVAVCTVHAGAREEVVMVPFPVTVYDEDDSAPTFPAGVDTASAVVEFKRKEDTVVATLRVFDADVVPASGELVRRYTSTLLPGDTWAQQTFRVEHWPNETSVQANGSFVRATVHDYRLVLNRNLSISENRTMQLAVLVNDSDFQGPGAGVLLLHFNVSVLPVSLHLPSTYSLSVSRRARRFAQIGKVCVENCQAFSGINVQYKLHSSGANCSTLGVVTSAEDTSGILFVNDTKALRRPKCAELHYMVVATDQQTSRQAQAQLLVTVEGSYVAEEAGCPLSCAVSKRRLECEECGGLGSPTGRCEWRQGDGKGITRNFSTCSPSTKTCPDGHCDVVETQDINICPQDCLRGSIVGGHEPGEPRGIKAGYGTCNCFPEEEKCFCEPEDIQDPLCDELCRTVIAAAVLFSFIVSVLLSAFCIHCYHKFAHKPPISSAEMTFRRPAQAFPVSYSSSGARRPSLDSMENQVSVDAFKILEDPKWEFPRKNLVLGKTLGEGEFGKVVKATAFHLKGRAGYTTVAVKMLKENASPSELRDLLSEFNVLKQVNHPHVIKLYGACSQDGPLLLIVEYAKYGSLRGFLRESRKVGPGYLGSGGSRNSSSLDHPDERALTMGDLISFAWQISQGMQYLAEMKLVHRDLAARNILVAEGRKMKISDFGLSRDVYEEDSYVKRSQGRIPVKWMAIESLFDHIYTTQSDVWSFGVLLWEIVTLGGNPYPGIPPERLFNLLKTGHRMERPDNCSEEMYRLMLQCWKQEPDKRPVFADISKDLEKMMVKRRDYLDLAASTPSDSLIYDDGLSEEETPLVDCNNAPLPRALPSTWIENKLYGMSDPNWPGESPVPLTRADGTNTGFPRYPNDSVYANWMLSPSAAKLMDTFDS
UniProt P07949, whole entry M918T, looked up: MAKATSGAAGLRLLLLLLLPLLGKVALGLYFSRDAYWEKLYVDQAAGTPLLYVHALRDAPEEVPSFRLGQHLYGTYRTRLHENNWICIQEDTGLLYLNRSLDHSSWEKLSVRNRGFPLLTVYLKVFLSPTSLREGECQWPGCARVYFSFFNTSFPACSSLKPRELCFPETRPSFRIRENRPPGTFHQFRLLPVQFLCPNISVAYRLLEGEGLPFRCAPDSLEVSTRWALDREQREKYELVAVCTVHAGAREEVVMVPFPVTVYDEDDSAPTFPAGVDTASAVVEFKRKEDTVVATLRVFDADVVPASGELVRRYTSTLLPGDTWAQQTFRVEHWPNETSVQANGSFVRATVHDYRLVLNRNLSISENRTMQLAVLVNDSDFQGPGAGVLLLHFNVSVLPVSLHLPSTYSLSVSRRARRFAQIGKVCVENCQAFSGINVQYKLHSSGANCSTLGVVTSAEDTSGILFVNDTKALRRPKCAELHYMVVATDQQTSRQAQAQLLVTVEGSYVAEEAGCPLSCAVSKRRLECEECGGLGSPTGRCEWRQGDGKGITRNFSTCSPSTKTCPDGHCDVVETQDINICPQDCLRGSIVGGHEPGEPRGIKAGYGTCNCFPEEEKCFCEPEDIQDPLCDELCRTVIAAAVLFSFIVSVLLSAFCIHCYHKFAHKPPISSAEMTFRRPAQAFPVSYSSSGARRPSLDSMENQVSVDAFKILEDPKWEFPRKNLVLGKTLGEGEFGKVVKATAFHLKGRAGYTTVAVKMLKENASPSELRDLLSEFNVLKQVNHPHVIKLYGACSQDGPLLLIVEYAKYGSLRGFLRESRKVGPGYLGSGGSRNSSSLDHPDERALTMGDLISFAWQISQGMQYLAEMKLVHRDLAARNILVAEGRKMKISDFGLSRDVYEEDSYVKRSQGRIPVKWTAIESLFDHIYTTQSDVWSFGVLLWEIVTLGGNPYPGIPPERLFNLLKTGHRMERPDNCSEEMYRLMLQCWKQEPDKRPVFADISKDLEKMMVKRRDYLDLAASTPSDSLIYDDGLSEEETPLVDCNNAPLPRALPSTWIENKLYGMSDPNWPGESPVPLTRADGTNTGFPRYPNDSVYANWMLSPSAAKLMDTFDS
UniProt Q13546: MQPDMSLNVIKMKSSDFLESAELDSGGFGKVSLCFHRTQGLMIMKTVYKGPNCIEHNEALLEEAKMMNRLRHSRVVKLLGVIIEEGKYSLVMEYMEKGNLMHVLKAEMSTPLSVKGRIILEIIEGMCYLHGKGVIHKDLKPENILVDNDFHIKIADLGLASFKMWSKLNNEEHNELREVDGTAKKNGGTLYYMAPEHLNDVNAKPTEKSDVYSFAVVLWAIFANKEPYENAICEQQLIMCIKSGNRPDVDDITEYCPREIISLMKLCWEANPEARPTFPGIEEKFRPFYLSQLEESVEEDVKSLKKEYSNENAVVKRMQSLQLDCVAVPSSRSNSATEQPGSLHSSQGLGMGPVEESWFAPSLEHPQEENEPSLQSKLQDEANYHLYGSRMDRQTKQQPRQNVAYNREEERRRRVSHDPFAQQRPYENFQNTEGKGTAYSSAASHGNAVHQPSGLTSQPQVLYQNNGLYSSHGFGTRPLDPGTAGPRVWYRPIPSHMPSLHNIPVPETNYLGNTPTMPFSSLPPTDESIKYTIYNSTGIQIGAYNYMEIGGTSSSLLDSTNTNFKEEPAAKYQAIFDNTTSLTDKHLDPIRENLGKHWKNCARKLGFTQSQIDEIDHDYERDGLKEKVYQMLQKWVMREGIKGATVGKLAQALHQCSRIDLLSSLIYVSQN
UniProt Q01974, whole entry: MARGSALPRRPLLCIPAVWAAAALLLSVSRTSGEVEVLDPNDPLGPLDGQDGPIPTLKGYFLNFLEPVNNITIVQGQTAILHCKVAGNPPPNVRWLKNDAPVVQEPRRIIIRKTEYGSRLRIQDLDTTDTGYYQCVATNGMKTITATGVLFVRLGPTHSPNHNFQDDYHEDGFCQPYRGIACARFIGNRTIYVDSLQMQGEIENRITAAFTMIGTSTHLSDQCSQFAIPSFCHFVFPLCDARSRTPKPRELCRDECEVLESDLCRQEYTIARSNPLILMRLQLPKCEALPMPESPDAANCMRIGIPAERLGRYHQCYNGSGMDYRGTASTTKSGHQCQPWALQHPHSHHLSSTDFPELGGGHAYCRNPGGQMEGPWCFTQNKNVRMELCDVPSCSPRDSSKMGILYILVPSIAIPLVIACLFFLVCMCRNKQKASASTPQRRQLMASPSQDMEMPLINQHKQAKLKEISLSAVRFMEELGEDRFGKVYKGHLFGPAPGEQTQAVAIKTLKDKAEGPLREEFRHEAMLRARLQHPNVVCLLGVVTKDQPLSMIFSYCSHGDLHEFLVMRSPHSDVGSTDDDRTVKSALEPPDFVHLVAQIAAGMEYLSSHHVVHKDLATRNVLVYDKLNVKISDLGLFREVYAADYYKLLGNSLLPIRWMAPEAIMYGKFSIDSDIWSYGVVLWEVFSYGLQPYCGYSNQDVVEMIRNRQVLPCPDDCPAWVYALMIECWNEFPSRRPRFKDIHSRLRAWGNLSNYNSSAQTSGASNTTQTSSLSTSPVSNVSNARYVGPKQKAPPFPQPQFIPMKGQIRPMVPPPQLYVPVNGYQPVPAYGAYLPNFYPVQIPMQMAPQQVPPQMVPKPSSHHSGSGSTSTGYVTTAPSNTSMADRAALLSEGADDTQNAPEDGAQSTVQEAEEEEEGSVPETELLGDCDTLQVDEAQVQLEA
UniProt Q15418, whole entry: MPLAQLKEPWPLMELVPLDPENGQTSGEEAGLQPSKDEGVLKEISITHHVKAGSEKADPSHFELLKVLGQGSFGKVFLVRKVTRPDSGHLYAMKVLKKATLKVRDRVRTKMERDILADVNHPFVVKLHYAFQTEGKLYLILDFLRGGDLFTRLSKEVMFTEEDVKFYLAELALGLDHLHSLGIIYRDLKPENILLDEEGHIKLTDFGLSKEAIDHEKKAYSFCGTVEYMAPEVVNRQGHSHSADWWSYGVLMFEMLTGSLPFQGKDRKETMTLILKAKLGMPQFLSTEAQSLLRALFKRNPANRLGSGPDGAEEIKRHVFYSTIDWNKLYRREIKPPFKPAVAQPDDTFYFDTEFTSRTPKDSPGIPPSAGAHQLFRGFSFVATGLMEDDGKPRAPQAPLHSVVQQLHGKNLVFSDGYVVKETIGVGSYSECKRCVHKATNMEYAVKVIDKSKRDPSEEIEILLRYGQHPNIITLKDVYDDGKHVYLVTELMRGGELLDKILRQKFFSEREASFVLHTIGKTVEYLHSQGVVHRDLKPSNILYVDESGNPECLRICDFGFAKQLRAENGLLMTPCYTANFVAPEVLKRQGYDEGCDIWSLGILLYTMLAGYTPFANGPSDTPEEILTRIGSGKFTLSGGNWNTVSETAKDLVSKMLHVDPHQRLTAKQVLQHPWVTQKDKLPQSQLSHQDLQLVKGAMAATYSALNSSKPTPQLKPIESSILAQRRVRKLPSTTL
UniProt Q9NYA1, whole entry: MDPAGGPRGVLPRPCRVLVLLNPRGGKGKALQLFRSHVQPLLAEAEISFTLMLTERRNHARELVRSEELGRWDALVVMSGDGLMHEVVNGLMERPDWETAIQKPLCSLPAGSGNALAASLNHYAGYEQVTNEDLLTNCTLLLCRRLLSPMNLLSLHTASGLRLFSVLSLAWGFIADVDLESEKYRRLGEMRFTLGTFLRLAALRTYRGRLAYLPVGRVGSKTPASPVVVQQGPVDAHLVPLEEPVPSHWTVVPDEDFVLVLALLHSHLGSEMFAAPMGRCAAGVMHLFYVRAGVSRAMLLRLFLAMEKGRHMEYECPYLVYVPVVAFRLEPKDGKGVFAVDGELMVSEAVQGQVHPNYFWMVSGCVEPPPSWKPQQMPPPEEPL
UniProt Q9Y6E0: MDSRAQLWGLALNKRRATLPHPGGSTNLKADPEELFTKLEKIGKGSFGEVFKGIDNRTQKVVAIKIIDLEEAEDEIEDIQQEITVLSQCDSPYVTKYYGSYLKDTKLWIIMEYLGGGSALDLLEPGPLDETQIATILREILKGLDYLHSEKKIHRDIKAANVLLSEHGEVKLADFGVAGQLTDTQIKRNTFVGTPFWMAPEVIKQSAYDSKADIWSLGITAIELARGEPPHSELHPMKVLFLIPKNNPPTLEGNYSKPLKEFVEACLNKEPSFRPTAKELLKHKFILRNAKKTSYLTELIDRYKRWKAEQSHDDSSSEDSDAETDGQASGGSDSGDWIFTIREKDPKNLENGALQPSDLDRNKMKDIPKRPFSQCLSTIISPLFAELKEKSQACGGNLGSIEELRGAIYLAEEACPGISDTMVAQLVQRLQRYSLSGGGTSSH
UniProt P42680: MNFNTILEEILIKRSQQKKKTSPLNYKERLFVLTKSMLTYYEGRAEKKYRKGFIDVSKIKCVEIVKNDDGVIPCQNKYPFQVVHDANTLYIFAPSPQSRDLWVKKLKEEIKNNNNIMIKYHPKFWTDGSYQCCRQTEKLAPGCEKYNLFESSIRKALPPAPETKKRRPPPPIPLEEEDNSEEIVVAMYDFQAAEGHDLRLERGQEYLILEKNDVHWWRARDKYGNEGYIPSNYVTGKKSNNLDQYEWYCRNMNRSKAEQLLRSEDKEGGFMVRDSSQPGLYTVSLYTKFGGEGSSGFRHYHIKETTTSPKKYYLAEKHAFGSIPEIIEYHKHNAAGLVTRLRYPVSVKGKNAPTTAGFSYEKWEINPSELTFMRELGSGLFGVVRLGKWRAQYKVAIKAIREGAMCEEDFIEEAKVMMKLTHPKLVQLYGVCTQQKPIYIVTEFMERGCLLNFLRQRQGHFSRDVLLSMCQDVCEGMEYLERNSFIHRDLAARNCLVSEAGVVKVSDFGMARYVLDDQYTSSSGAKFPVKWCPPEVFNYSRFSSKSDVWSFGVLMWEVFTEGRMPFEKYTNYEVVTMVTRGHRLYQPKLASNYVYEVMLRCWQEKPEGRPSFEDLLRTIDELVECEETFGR
UniProt Q6PHR2: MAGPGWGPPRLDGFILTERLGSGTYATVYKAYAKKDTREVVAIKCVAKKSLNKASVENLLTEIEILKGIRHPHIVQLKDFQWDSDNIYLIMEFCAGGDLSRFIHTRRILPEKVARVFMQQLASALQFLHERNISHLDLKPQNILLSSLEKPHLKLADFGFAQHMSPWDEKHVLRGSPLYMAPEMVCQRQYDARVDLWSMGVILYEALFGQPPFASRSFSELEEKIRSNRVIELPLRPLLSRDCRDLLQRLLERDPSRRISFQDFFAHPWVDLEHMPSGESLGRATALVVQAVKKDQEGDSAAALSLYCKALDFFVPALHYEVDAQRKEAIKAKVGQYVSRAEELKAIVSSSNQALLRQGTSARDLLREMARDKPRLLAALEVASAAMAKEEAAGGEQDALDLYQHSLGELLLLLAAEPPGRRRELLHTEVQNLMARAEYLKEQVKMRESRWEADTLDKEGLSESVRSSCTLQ

Tests used:
Experiment in all cases: number of time points (of 5) at which kinase-Nluc abundance scored as decreased, DMSO-normalised (count); higher = more persistent destabilization
Conditions in all cases: K562; 2-18 h
[1] = target: PRKCA (UniProt P17252)
[2] = target: PTK2 (UniProt Q05397)
[3] = target: PTK2B (UniProt Q14289)
[4] = target: RAF1 (UniProt P04049)
[5] = target: RAF1_S257L (clone: RAF1_mut) (UniProt P04049)
[6] = target: RET (UniProt P07949)
[7] = target: RET_M918T (clone: RET_mut) (UniProt P07949)
[8] = target: RIOK1 (UniProt Q9BRS2)
[9] = target: RIPK1 (UniProt Q13546)
[10] = target: RIPK2 (UniProt O43353)
[11] = target: ROR2 (UniProt Q01974)
[12] = target: RPS6KA1 (UniProt Q15418)
[13] = target: SPHK1 (UniProt Q9NYA1)
[14] = target: SRC (UniProt P12931)
[15] = target: STK24 (UniProt Q9Y6E0)
[16] = target: STK38 (UniProt Q15208)
[17] = target: SYK (UniProt P43405)
[18] = target: TEC (UniProt P42680)
[19] = target: TYK2 (UniProt P29597)
[20] = target: ULK3 (UniProt Q6PHR2)

Compound | number of time points [1] | number of time points [2] | number of time points [3] | number of time points [4] | number of time points [5] | number of time points [6] | number of time points [7] | number of time points [8] | number of time points [9] | number of time points [10] | number of time points [11] | number of time points [12] | number of time points [13] | number of time points [14] | number of time points [15] | number of time points [16] | number of time points [17] | number of time points [18] | number of time points [19] | number of time points [20]
COc1cc2ncnc(Nc3cccc(Cl)c3)c2cc1OC (10 µM) | 0 | 0 | 0 | 0 | 0 | 0 | 0 | 0 | 0 | 0 | 0 | 0 | 0 | 0 | 0 | 0 | 0 | 0 | 0 | 0
CCOc1ccc(C(=O)Nc2ncc([N+](=O)[O-])s2)cc1 (10 µM) | 0 | 0 | 0 | 0 | 0 | 0 | 0 | 0 | 0 | 0 | 0 | 0 | 0 | 0 | 0 | 0 | 0 | 0 | 2 | 0
C[C@@H](c1ccc2nccn2c1)n1nnc2ncc(-c3cnn(C)c3)nc21 [Savolitinib] (10 µM) | 0 | 0 | 0 | 0 | 0 | 0 | 0 | 0 | 0 | 0 | 0 | 0 | 0 | 0 | 0 | 0 | 0 | 0 | 0 | 0
Cn1cc(-c2ccc(CNc3cc(-c4cnc5cc(OCCCN6CCCC6)ccn45)ncn3)cc2)cn1 (10 µM) | 0 | 0 | 0 | 0 | 0 | 0 | 0 | 0 | 0 | 0 | 0 | 0 | 0 | 0 | 0 | 0 | 0 | 0 | 0 | 0
CC(C)=CCC[C@](C)(O[C@@H]1O[C@H](CO)[C@@H](O)[C@H](O)[C@H]1O)[C@H]1CC[C@]2(C)[C@@H]1[C@H](O)C[C@@H]1[C@@]3(C)CC[C@H](O)C(C)(C)[C@@H]3[C@@H](O[C@@H]3O[C@H](CO)[C@@H](O)[C@H](O)[C@H]3O[C@@H]3O[C@@H](C)[C@H](O)[C@@H](O)[C@H]3O)C[C@]12C [Ginsenoside Re] (10 µM) | 0 | 0 | 0 | 0 | 0 | 0 | 0 | 0 | 0 | 0 | 0 | 0 | 0 | 0 | 0 | 0 | 0 | 0 | 0 | 0
O=C1NC(=O)C(=Cc2ccc(-c3ccc(F)cc3)o2)S1 (stereo in doubt) (10 µM) | 0 | 0 | 0 | 2 | 0 | 0 | 0 | 0 | 0 | 0 | 0 | 0 | 0 | 0 | 0 | 0 | 0 | 0 | 0 | 0
O=C(NC(NC(=S)Nc1ccc(F)c([N+](=O)[O-])c1)C(Cl)(Cl)Cl)C(c1ccccc1)c1ccccc1 (stereo not given) (10 µM) | 0 | 0 | 0 | 0 | 0 | 0 | 0 | 0 | 1 | 0 | 0 | 0 | 0 | 0 | 0 | 0 | 0 | 0 | 0 | 0
COc1ccc(CC(=O)Nc2nc3c(s2)CCc2ccccc2-3)cc1OC (10 µM) | 0 | 0 | 0 | 0 | 0 | 0 | 0 | 0 | 0 | 0 | 0 | 0 | 0 | 0 | 0 | 0 | 0 | 0 | 0 | 0
C=C(C)C(=O)Nc1cccc(-c2ncnc3[nH]cc(C(=O)OCC)c23)c1 (10 µM) | 0 | 0 | 0 | 0 | 0 | 0 | 0 | 0 | 0 | 0 | 0 | 0 | 0 | 0 | 0 | 0 | 0 | 0 | 0 | 0
CC(c1ccc(-c2cnc3c(-c4ccc(S(N)(=O)=O)c5ccccc45)cnn3c2)cc1)N1CCCC1 (stereo not given) (2.5 µM) | 0 | 0 | 0 | 0 | 0 | 0 | 0 | 0 | 0 | 0 | 0 | 0 | 0 | 0 | 0 | 0 | 0 | 0 | 0 | 0
COc1ccc(Cl)cc1NC(=O)Nc1cc(C)nc2ccccc12 (2.5 µM) | 0 | 0 | 0 | 0 | 0 | 0 | 0 | 0 | 0 | 0 | 0 | 0 | 0 | 0 | 0 | 0 | 0 | 0 | 0 | 0
CCn1c(=O)c(-c2ccc(-c3cncs3)cc2Cl)cc2cnc(Nc3ccc(N4CCN(C)CC4)cc3)nc21 (2.5 µM) | 0 | 0 | 0 | 0 | 0 | 0 | 0 | 0 | 0 | 0 | 0 | 0 | 0 | 0 | 0 | 0 | 0 | 0 | 0 | 0
c1cn2cc(-c3ccc4cn[nH]c4c3)nc(Nc3ccc(N4CCOCC4)cc3)c2n1 [Entospletinib] (10 µM) | 0 | 0 | 0 | 0 | 0 | 0 | 0 | 0 | 0 | 0 | 0 | 0 | 0 | 0 | 0 | 0 | 0 | 0 | 0 | 0
COC1(c2sc3c(N4CCOCC4)nc(-c4cnc(N)nc4)nc3c2C)COC1 (2.5 µM) | 0 | 2 | 0 | 0 | 0 | 0 | 0 | 0 | 0 | 0 | 0 | 0 | 0 | 0 | 0 | 0 | 0 | 0 | 0 | 0
O=C(/C=C/c1ccc(O)c(O)c1)OC1CC(OC(=O)/C=C/c2ccc(O)c(O)c2)(C(=O)O)CC(O)C1O (stereo not given) [1,3-Dicaffeoylquinic acid] (10 µM) | 0 | 0 | 0 | 0 | 0 | 0 | 0 | 0 | 0 | 0 | 0 | 0 | 0 | 0 | 0 | 0 | 0 | 0 | 0 | 0
C=CC(=O)Nc1cc2c(Nc3ccc(OCc4ccccn4)c(Cl)c3)ncnc2cc1OCCN1CCOCC1 (10 µM) | 0 | 3 | 0 | 0 | 0 | 0 | 0 | 0 | 0 | 0 | 0 | 0 | 0 | 0 | 0 | 0 | 0 | 0 | 4 | 0
C=C1C(=O)O[C@@H]2C[C@@]3(C)CCC[C@H](C)C3=C[C@H]12 [Alantolactone] (10 µM) | 0 | 0 | 0 | 0 | 0 | 0 | 0 | 0 | 0 | 0 | 0 | 0 | 0 | 0 | 0 | 0 | 0 | 0 | 0 | 0
Cc1c(CN2CCN(C(=O)[C@H](C)O)CC2)sc2c(N3CCOCC3)nc(-c3cnc(N)nc3)nc12 [Apitolisib] (10 µM) | 0 | 3 | 0 | 2 | 0 | 0 | 0 | 0 | 0 | 0 | 0 | 0 | 0 | 0 | 0 | 0 | 0 | 0 | 4 | 1
CC(C)NC(=O)N1CC[C@H](NC2=Nc3cc(F)ccc3N(CC(F)F)c3ccc(Cl)cc32)C1 (10 µM) | 0 | 0 | 0 | 0 | 0 | 0 | 0 | 0 | 0 | 0 | 0 | 0 | 0 | 0 | 0 | 0 | 0 | 0 | 0 | 0
Cc1ccc(-c2c(C(=O)CCl)n(CCCO)c3ncnc(N)c23)cc1 (10 µM) | 0 | 2 | 2 | 2 | 0 | 4 | 4 | 0 | 3 | 4 | 0 | 0 | 0 | 0 | 0 | 1 | 1 | 3 | 3 | 3
C=CC(=O)Nc1ccc(CN(C(=O)Nc2c(Cl)c(OC)cc(OC)c2Cl)c2cc(Nc3ccc(N4CCN(C)CC4)cc3)ncn2)cc1 (10 µM) | 0 | 0 | 0 | 0 | 0 | 0 | 0 | 0 | 0 | 0 | 0 | 0 | 0 | 0 | 0 | 0 | 0 | 0 | 0 | 0
O=C(O)CCc1ccc(O)c(O)c1 [Dihydrocaffeic acid] (10 µM) | 0 | 0 | 0 | 0 | 0 | 0 | 0 | 0 | 0 | 0 | 0 | 0 | 0 | 0 | 0 | 0 | 0 | 0 | 0 | 0

Sorted by length of the SMILES (descending): some entries from above.
Compound | number of time points [1] | number of time points [2] | number of time points [3] | number of time points [4] | number of time points [5] | number of time points [6] | number of time points [7] | number of time points [8] | number of time points [9] | number of time points [10] | number of time points [11] | number of time points [12] | number of time points [13] | number of time points [14] | number of time points [15] | number of time points [16] | number of time points [17] | number of time points [18] | number of time points [19] | number of time points [20]
CC(C)=CCC[C@](C)(O[C@@H]1O[C@H](CO)[C@@H](O)[C@H](O)[C@H]1O)[C@H]1CC[C@]2(C)[C@@H]1[C@H](O)C[C@@H]1[C@@]3(C)CC[C@H](O)C(C)(C)[C@@H]3[C@@H](O[C@@H]3O[C@H](CO)[C@@H](O)[C@H](O)[C@H]3O[C@@H]3O[C@@H](C)[C@H](O)[C@@H](O)[C@H]3O)C[C@]12C [Ginsenoside Re] (10 µM) | 0 | 0 | 0 | 0 | 0 | 0 | 0 | 0 | 0 | 0 | 0 | 0 | 0 | 0 | 0 | 0 | 0 | 0 | 0 | 0
Cn1cc(-c2ccc(CNc3cc(-c4cnc5cc(OCCCN6CCCC6)ccn45)ncn3)cc2)cn1 (10 µM) | 0 | 0 | 0 | 0 | 0 | 0 | 0 | 0 | 0 | 0 | 0 | 0 | 0 | 0 | 0 | 0 | 0 | 0 | 0 | 0
CCOc1ccc(C(=O)Nc2ncc([N+](=O)[O-])s2)cc1 (10 µM) | 0 | 0 | 0 | 0 | 0 | 0 | 0 | 0 | 0 | 0 | 0 | 0 | 0 | 0 | 0 | 0 | 0 | 0 | 2 | 0
COc1ccc(Cl)cc1NC(=O)Nc1cc(C)nc2ccccc12 (2.5 µM) | 0 | 0 | 0 | 0 | 0 | 0 | 0 | 0 | 0 | 0 | 0 | 0 | 0 | 0 | 0 | 0 | 0 | 0 | 0 | 0
COc1cc2ncnc(Nc3cccc(Cl)c3)c2cc1OC (10 µM) | 0 | 0 | 0 | 0 | 0 | 0 | 0 | 0 | 0 | 0 | 0 | 0 | 0 | 0 | 0 | 0 | 0 | 0 | 0 | 0
